PubChem BioAssay AID652243 | Drosophila RNAi Screening Center | 2013
In all, the deposit lists about 24,000 reagents; below is an unselected part of those that have a named target and a result. In the full data, 246 (1%) got an active call. 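Plates not normalised; calls are printed but the firefly/Renilla ratio behind them is not deposited; fold cut for lowering reported inconsistently.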 The raw values are shown without normalisation. Entries without a mark were called inactive. The record does not give: the amount of reagent.

Screen: 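Fly genes required for human androgen receptor driven transcription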 (primary screen)
Cell system: Drosophila S2R+ cells
Reagent: long dsRNA against Drosophila genes
Duration: 72 h (48 h, then 24 h hormone)
Challenge: synthetic androgen R1881 at 10 nM for 24 h
Measurement: 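Per-well raw luminescence of the androgen-driven firefly reporter and of the Renilla control, two replicates each, without normalisation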
Scale: firefly reporter light: higher = more light from androgen-responsive reporter; Renilla control light: higher = more constitutive control signal (cell number, transfection)
Active means: 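Across duplicate plates, a knock-down whose log firefly/Renilla ratio shifted a set fold down or up from the GFP/LacZ control mean was a hit; the downward cut appears as both 1.5 and 3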
Calls: active = hit: reporter lowered or raised; inactive = no hit

gene,PubChem SID,"firefly reporter light, replicate 1","firefly reporter light, replicate 2","Renilla control light, replicate 1","Renilla control light, replicate 2"
Dhc98D (Dynein heavy chain at 89D),SID104196437,1.30e5,1.27e5,1.41e6,2.10e6
Dhc98D (Dynein heavy chain at 89D),SID104206328,2.35e5,2.41e5,4.82e5,7.16e5
CG40198,SID104200860,4.78e5,5.30e5,5.78e5,3.87e5
"SmydA-9 (SET and MYND domain containing, arthropod-specific, member 9)",SID104197606,3.08e5,3.53e5,2.72e6,3.17e6
CG13097,SID104181991,7.69e5,8.08e5,1.60e6,1.74e6
CG6409,SID104190422,5.01e5,4.21e5,4.54e6,3.42e6
CG6409,SID104201830,5.54e5,4.58e5,2.05e6,2.31e6
CG6409,SID104206181,2.28e5,2.28e5,4.75e5,6.52e5
CG3631,SID104195295,76676,84640,5.51e5,5.68e5
CG3631,SID104208312,3.19e5,4.17e5,9.60e5,1.35e6
CG13630,SID104194423,67551,68120,8.08e5,8.33e5
CG8492,SID104190776,6.47e5,6.72e5,2.42e6,3.73e6
CG8492,SID104201460,5.11e5,7.35e5,2.84e6,4.79e6
Vm34Ca (Vitelline membrane 34Ca),SID104183267,1.64e5,1.79e5,1.16e6,1.06e6
Vm34Ca (Vitelline membrane 34Ca),SID104203806,2.67e5,2.41e5,1.34e6,6.91e5
CG14740,SID104194752,54420,1.12e5,4.64e5,6.43e5
CG17636,SID104200440,1.33e5,1.25e5,4.27e5,3.68e5
Gyc89Db (Guanylyl cyclase at 89Db),SID104194801,79307,66172,3.22e5,5.17e5
CG34170,SID104216311,6.19e5,6.22e5,1.99e6,2.18e6
CG4653,SID104199701,3.32e5,3.19e5,3.05e6,2.78e6
CG4653,SID104202216,6.02e5,8.05e5,1.59e6,2.15e6
CG4653,SID104203142,6.46e5,8.83e5,9.37e5,1.18e6
Osi7 (Osiris 7),SID104191968,1.10e5,95812,2.64e6,2.22e6
Osi7 (Osiris 7),SID104205690,2.84e5,2.60e5,5.27e5,4.91e5

Taken from above.
Value of Dhc98D (Dynein heavy chain at 89D) [SID104196437] in “Renilla control light, replicate 1”: 1.41e6
Under “firefly reporter light, replicate 1”, Dhc98D (Dynein heavy chain at 89D) [SID104206328] reads 2.35e5
